{
  "source": "PubChem BioAssay AID504444",
  "about": "(National Center for Advancing Translational Sciences (NCATS), 2011)",
  "note": "The whole screen tested about 360,000 compounds, of which about 7,500 (2.1%) were called active. The inconclusive results got no clear call from the source; some entries with a clear call stand among them for comparison. The call rests on the fitted dose curve; in most records, active means well fitted inhibition curve with a large enough effect; inconclusive means small, poorly fitted or top-dose-only effect, or effect the other way; inactive means flat fitted curve, though single readings scatter. Potencies beside an inconclusive call are fits to weak or partial responses and may not hold up. On the % scale 0 is the no-effect control and ±100 the full control effect; potency means the concentration at half of the fitted maximal effect.",
  "data": [
    {"assay": "Nrf2 qHTS screen for inhibitors; further: nearly all actives have a fitted effect of over 60% in size", "settings": "A549 ARE-Fluc reporter, luciferase luminescence, 18-24 h; activity change, negative = inhibition: at 46 µM (top of the series)", "procedure,_shortened": "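Reporter: ARE-Fluc in A549. Exposure: 18-24 h, 37 °C, 5% CO2, 5% FBS OPTI-MEM. Readouts: fluorescent cytotoxicity (CellTiter-Fluor), then luminescent Nrf2 signal after BugLite.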", "values": [
      {"smiles": "CC(C)c1nc(C(=O)N2CCc3c([nH]c4ccccc34)C2c2ccccn2)cs1", "note": "(configuration not stated)", "Potency": "inconclusive: 13 µM [falling, partial curve, poor fit]"},
      {"smiles": "COC(=O)N/N=C/c1cc(Cl)c(OCc2ccccc2F)c(OC)c1", "activity change, negative = inhibition": "inactive: -1.36%"},
      {"smiles": "COc1ccc(CCN2C(=O)CC(N3CCN(S(=O)(=O)c4ccccc4)CC3)C2=O)cc1OC", "note": "(configuration not stated)", "activity change, negative = inhibition": "inactive: -7.98%"},
      {"smiles": "CCc1ccccc1N(C(=O)c1snc(C(N)=O)c1N)C(C(=O)NCC1CCCO1)c1ccc(OC)c(OC)c1", "note": "(configuration not stated)", "Potency": "inconclusive: 20.6 µM [falling, single point]"},
      {"smiles": "CCN1C(=O)/C(=C\\N(C)C)S/C1=N\\S(=O)(=O)c1ccc(C)cc1", "activity change, negative = inhibition": "inactive: 0.923%"},
      {"smiles": "CCOC(=O)c1c(-c2ccccc2)oc2ccc(N(C(C)=O)S(=O)(=O)c3ccc(CC)cc3)cc12", "Potency": "inconclusive: 25.9 µM [falling, single point]"},
      {"smiles": "CC(NC(=O)CCCCCCN1C(=O)c2ccccc2C1=O)c1ccc2c(c1)CCCC2", "note": "(configuration not stated)", "activity change, negative = inhibition": "inactive: 11.8%"},
      {"smiles": "CCCNS(=O)(=O)c1ccc(CCC(=O)N2CCN(c3ccc(F)cc3)CC2)cc1", "Potency": "inconclusive: 29.1 µM [falling, single point]"},
      {"smiles": "CCOc1ccccc1N(C(=O)c1snc(C(N)=O)c1N)C(C(=O)NC1CCCC1)c1ccco1", "note": "(configuration not stated)", "activity change, negative = inhibition": "inactive: 0%"},
      {"smiles": "NC(=S)N/N=C/c1ncc(C(F)(F)F)cc1Cl", "Potency": "active: 4.11 µM"},
      {"smiles": "O=C(COc1ccccc1-c1nc(-c2ccccc2)no1)Nc1cccc([N+](=O)[O-])c1", "Potency": "inconclusive: 20.6 µM [falling, single point]"},
      {"smiles": "Cc1ccc(NS(=O)(=O)c2cc3c(cc2-c2ccco2)NC(=O)CO3)cc1C", "activity change, negative = inhibition": "inactive: 0.345%"},
      {"smiles": "C=CCNC(=S)NC(=O)c1ccc(C)c(Br)c1", "Potency": "inconclusive: 32.6 µM [activator, single point]"},
      {"smiles": "CCc1ccc(/C=N/NC(=O)c2ccccn2)cc1", "Potency": "inconclusive: 29.1 µM [falling, single point]"},
      {"smiles": "Cc1ccc(NC(=O)CSc2ccc(-c3ccccn3)nn2)cc1", "Potency": "inconclusive: 23.1 µM [falling, single point]"},
      {"smiles": "Cc1ccccc1Nc1nnc(SCC(=O)c2cc3ccccc3o2)s1", "Potency": "inconclusive: 23.1 µM [falling, single point]"},
      {"smiles": "COc1ccc(COC[C@H](C)[C@H](O[Si](C)(C)C)[C@@H](C)[C@H]2OC(=O)[C@H]2C)cc1", "activity change, negative = inhibition": "inactive: 0.43%"},
      {"smiles": "Cc1ccc(C(=O)Nc2ccc3c(c2)OCCO3)cc1", "Potency": "inconclusive: 0.259 µM [activator, full curve]"},
      {"smiles": "CCC(CO)Oc1cc(NCc2ccc(C)c(C)c2)c2ncn(C(C)C)c2c1", "note": "(configuration not stated)", "Potency": "inconclusive: 29.1 µM [falling, single point]"},
      {"smiles": "COC1CCCN(Cc2cn(C)nc2-c2ccc(Oc3ccccc3)cc2)C1", "note": "(configuration not stated)", "activity change, negative = inhibition": "inactive: 1.27%"},
      {"smiles": "O=C(CNC(=O)c1ccc(Br)o1)NNC(=O)c1ccccc1O", "Potency": "inconclusive: 14.6 µM [activator, partial curve, poor fit]"},
      {"smiles": "O=C(COC(=O)c1cc2ccccc2oc1=O)c1cccc([N+](=O)[O-])c1", "activity change, negative = inhibition": "inactive: -9.81%"},
      {"smiles": "Fc1cccc2sc(Nc3nc4cc5c(cc4s3)OCCO5)nc12", "Potency": "inconclusive: 14.6 µM [activator, partial curve]"},
      {"smiles": "O=[N+]([O-])c1nn(-c2ccccc2)n(O)c1=NC1CCN(Cc2ccccc2)CC1", "activity change, negative = inhibition": "inactive: 12.5%"},
      {"smiles": "Cc1ccc(-c2nnc(N3CCOCC3)c3ccccc23)cc1S(=O)(=O)NCC1CCCO1", "note": "(configuration not stated)", "Potency": "inconclusive: 18.4 µM [falling, single point]"},
      {"smiles": "Cc1ccc(N(CC(=O)N2CCN(c3cc(C)ccc3C)CC2)S(=O)(=O)c2c(C)nn(C)c2C)cc1", "Potency": "inconclusive: 32.6 µM [falling, single point]"},
      {"smiles": "CC(=O)C1=C(C)Nc2ncnn2C1c1cccc(OCc2ccccc2)c1", "note": "(configuration not stated)", "Potency": "inconclusive: 2.59 µM [falling, partial curve, poor fit]"},
      {"smiles": "Cc1ccccc1N(C(=O)c1snc(C(N)=O)c1N)C(C(=O)NC1CCCC1)c1ccco1", "note": "(configuration not stated)", "Potency": "inconclusive: 23.1 µM [activator, single point]"},
      {"smiles": "Cc1cc(C)nc(NC(=O)Nc2ccccc2C(F)(F)F)n1", "Potency": "inconclusive: 29.1 µM [falling, single point]"},
      {"smiles": "Cc1cc(C)c2nc(SCC(=O)N3CC(=O)Nc4ccccc43)c(C#N)cc2c1", "activity change, negative = inhibition": "inactive: 5.68%"},
      {"smiles": "Cc1ccc(C)c2[nH]c(=O)c(CCNC(=O)c3ccc(S(=O)(=O)N4CCCC4)cc3)cc12", "Potency": "inconclusive: 16.4 µM [falling, single point]"},
      {"smiles": "CN(C)C(=O)c1ccc(NC(=O)c2cccc(S(=O)(=O)N3CCCc4ccccc43)c2)cc1", "Potency": "inconclusive: 29.1 µM [falling, single point]"},
      {"smiles": "CCc1ccc(Nc2ccc(C(N)=O)cc2[N+](=O)[O-])cc1", "Potency": "inconclusive: 32.6 µM [falling, single point]"},
      {"smiles": "Cc1ccc(CN(C(=O)c2ccc(OCC(C)C)cc2)c2ccccn2)o1", "activity change, negative = inhibition": "inactive: 19.5%"},
      {"smiles": "CN(C)CC(CCC(CN(C)C)C(=O)c1ccccc1)C(=O)c1ccccc1", "note": "(configuration not stated)", "Potency": "active: 18.4 µM"},
      {"smiles": "O=c1cc(CSc2nnc(-c3cccs3)n2Cc2ccccc2)nc2sc3ccccc3n12", "Potency": "active: 25.9 µM"},
      {"smiles": "Cc1cc(NC(=O)c2nn(C)c(C)c2Br)no1", "Potency": "inconclusive: 23.1 µM [activator, partial curve]"},
      {"smiles": "Cc1ccc2cc(CN(Cc3ccc4c(c3)OCO4)Cc3nnnn3Cc3ccco3)c(=O)[nH]c2c1", "Potency": "inconclusive: 23.1 µM [falling, single point]"},
      {"smiles": "CCOc1ccc(NS(=O)(=O)c2ccc(NC(=O)c3ccccn3)cc2)cc1", "Potency": "active: 14.6 µM"},
      {"smiles": "Nc1nonc1-c1noc(CCCOc2ccc(Cl)cc2Cl)n1", "Potency": "inconclusive: 6.51 µM [falling, single point]"},
      {"smiles": "Cc1ccc2c(CN3CCC(C)CC3)cc(=O)oc2c1C", "Potency": "inconclusive: 4.61 µM [activator, full curve]"},
      {"smiles": "Cc1c(C(=O)Nc2ccccc2)sc2nc(-c3ccccc3)cn12", "Potency": "inconclusive: 16.4 µM [falling, single point]"},
      {"smiles": "CCOc1ccc(N(C)C(=O)c2oc(=O)c3ccccc3c2-c2ccccc2)cc1", "Potency": "inconclusive: 29.1 µM [falling, single point]"},
      {"smiles": "Cc1ccc(S(=O)(=O)N2CCN(C(=O)c3ccc4c(c3)OCO4)CC2)cc1", "Potency": "inconclusive: 29.1 µM [falling, single point]"},
      {"smiles": "Clc1cc(Cl)c2nc(N3CCCCC3)sc2c1", "Potency": "inconclusive: 11.6 µM [activator, partial curve]"},
      {"smiles": "Cc1cc(C)cc(NC(=O)CSc2nnc(-c3ccccc3C)o2)c1", "Potency": "inconclusive: 18.4 µM [falling, partial curve, poor fit]"},
      {"smiles": "CCOC(=O)c1cc2c(nc1N)CC(C)(CC)OC2", "note": "(configuration not stated)", "Potency": "inconclusive: 0.291 µM [activator, full curve]"},
      {"smiles": "O=S(=O)(Nc1cc(Cl)ccn1)c1ccc(Cl)cc1", "Potency": "inconclusive: 5.8 µM [falling, partial curve, poor fit]"},
      {"smiles": "CSC(=S)NCc1cccnc1", "Potency": "inconclusive: 29.1 µM [activator, single point]"},
      {"smiles": "O=C(CN1C(=O)NC(Cc2c[nH]c3ccccc23)C1=O)Nc1cccc(S(=O)(=O)N2CCCC2)c1", "note": "(configuration not stated)", "activity change, negative = inhibition": "inactive: -12.9%"},
      {"smiles": "COc1ccc2sc(-c3ccccc3OC)c(-c3ccc(OC)nc3)c2c1", "Potency": "inconclusive: 18.4 µM [activator, partial curve]"},
      {"smiles": "O=c1c2sc3ccccc3c2n(Cc2cccc(F)c2)c(=O)n1CCc1ccccc1", "Potency": "inconclusive: 18.4 µM [activator, partial curve]"},
      {"smiles": "CC(C)c1csc(CN2CCN(Cc3ccc(F)cc3)C(CCO)C2)n1", "note": "(configuration not stated)", "activity change, negative = inhibition": "inactive: 4.02%"},
      {"smiles": "CSc1ccc(CNC(=O)C(C)n2nc(C)c3c(C)n(-c4ccccc4)nc3c2=O)cc1", "note": "(configuration not stated)", "activity change, negative = inhibition": "inactive: -15.7%"},
      {"smiles": "Cc1ccc(C2C3=C(CC(C)(C)CC3=O)N=C3c4ccccc4C(=O)C32)cc1", "note": "(configuration not stated)", "Potency": "inconclusive: 29.1 µM [falling, single point]"},
      {"smiles": "Cc1cc(OCC(O)CNC(C)c2ccccc2)ccc1C(C)C", "note": "(configuration not stated)", "activity change, negative = inhibition": "inactive: 6.11%"},
      {"smiles": "O=C(NCc1ccco1)c1ccc(Br)c(S(=O)(=O)N2CCCCC2)c1", "Potency": "inconclusive: 16.4 µM [falling, partial curve, poor fit]"},
      {"smiles": "CCCc1cc(=O)oc2c3c(ccc12)OCN(Cc1ccccc1OC)C3", "Potency": "inconclusive: 18.4 µM [activator, partial curve]"},
      {"smiles": "NCc1cn(Cc2ccccc2)nc1-c1ccccc1", "Potency": "inconclusive: 18.4 µM [activator, single point]"},
      {"smiles": "Nc1c(C(=O)NCc2ccccc2)c2nc3ccccc3nc2n1CCCN1CCOCC1", "Potency": "inconclusive: 29.1 µM [falling, single point]"},
      {"smiles": "O=C(Nc1c(C(=O)Nc2cccc3ccccc23)cnn1-c1ccccc1)c1ccco1", "Potency": "inconclusive: 20.6 µM [falling, single point]"},
      {"smiles": "Cc1ccnc(NC(=O)Nc2ccc3c(c2)N(C)C(=O)CS3)c1", "Potency": "inconclusive: 0.58 µM [activator, full curve]"},
      {"smiles": "Cn1c(=O)c2c(nc(Sc3ncccn3)n2Cc2ccccc2Cl)n(C)c1=O", "Potency": "inconclusive: 20.6 µM [falling, single point]"},
      {"smiles": "CC(C)CN(CC(C)C)C(=O)c1cccc(S(=O)(=O)N2CCc3ccccc32)c1", "Potency": "inconclusive: 23.1 µM [falling, single point]"},
      {"smiles": "CC(=O)Oc1ccc2c(C)c(CC(=O)N3CCN(C(=O)C4COc5ccccc5O4)CC3)c(=O)oc2c1C", "note": "(configuration not stated)", "Potency": "inconclusive: 29.1 µM [falling, single point]"},
      {"smiles": "COC(=O)COc1ccc(-c2nnc(Nc3ccc(O)cc3)c3ccccc23)cc1", "activity change, negative = inhibition": "inactive: -2.31%"},
      {"smiles": "COc1ccc(Br)c(C(=O)N2CCN(S(=O)(=O)/C=C/c3ccccc3)CC2)c1", "Potency": "inconclusive: 23.1 µM [falling, partial curve, poor fit]"}
    ]}
  ]
}
